Out of some 360,000 compounds screened, about 7,500 (2.1%) were called active. The shares of active, inactive and inconclusive entries below differ from those in the screen. Calls come from the whole dose curve; as a rule, active = well fitted inhibition curve with a large enough effect; inconclusive = small, poorly fitted or top-dose-only effect, or effect the other way; inactive = flat fitted curve, though single readings scatter. Potencies beside an inconclusive call are fits to weak or partial responses and may not hold up.
test: Nrf2 qHTS screen for inhibitors; conditions: A549 ARE-Fluc reporter, luciferase luminescence, 18-24 h; series mostly up to 46 µM; note: nearly all actives have a fitted effect of over 60% in size
Method in brief: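 Concentration-response testing used A549 ARE_Fluc cells at 5000 cells/well. Following an 18-24 h compound incubation, viability was read by fluorescence (Ex 405/Em 525) and luciferase output by luminescence.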
Potency is the fitted concentration of half-maximal effect.

SMILES	Potency
c1csc(C2Nc3ccccc3-c3nc4ccccc4n32)c1 (configuration not stated)	inactive
Cc1nc(Nc2ccc(C(=O)O)cc2)nc(Nc2ccc(C(=O)O)cc2)c1[N+](=O)[O-]	inconclusive: 25.9 µM [falling, single point]
O=C(Nc1ccc(F)cc1)c1ccc2ncsc2c1	inconclusive: 23.1 µM [activator, partial curve, poor fit]
O=C(Nc1ccc2nc3n(c(=O)c2c1)CCCC3)c1cc([N+](=O)[O-])ccc1F	inconclusive: 23.1 µM [activator, single point]
O=C(CSCc1ccc(Cl)cc1)Nc1cc([N+](=O)[O-])ccc1O	inactive
COc1ccc(NC(NC(=O)c2ccc(OC)cc2)C(Cl)(Cl)Cl)cc1 (configuration not stated)	inconclusive: 23.1 µM [falling, single point]
Cc1ccc(N/N=C/c2ccncc2)cc1	inconclusive: 20.6 µM [falling, single point]
CC(C)c1ccc2[nH]c(O)c(N=NC(=S)NCCc3ccccc3)c2c1	inconclusive: 29.1 µM [falling, single point]
CN1C(=O)S/C(=C/c2cccn2-c2cccc(C(=O)O)c2)C1=O	inconclusive: 29.1 µM [falling, partial curve, poor fit]
O=C(O)C1=CC[C@@H](c2ccc(Cl)cc2)N(S(=O)(=O)c2ccc(Cl)cc2)[C@H]1c1ccc(F)cc1	inconclusive: 16.4 µM [falling, partial curve, poor fit]
O=[N+]([O-])c1ccc(N2CCN(S(=O)(=O)c3ccc4ccccc4c3)CC2)cc1NCC1CCCO1 (configuration not stated)	inconclusive: 6.51 µM [activator, partial curve, poor fit]
NC(=O)c1ccccc1OCC(=O)N1CCc2ccccc2C1	inconclusive: 20.6 µM [falling, single point]
CC(C)NC(=O)c1onc(CSc2ccc(F)cc2)c1C(=O)NC(C)C	inconclusive: 29.1 µM [falling, single point]
CC1Cc2nc(SCC(=O)N3CCCc4ccccc43)n(C)c(=O)c2S1 (configuration not stated)	inconclusive: 29.1 µM [falling, single point]
NNS(=O)(=O)c1ccc(Cc2ncc(C(F)(F)F)cc2Cl)s1	inactive
Cc1ccc2oc(C(=O)NCC(c3ccco3)N(C)C)c(C)c2c1 (configuration not stated)	inconclusive: 2.06 µM [activator, partial curve]
CCOC(=O)C1CCN(C2=C(NS(=O)(=O)c3ccc(Cl)cc3)C(=O)c3ccccc3C2=O)CC1	inconclusive: 29.1 µM [activator, single point]
COc1ccc(NC(=O)CN2CCN(c3nc(-c4ccc(F)cc4)cs3)CC2)c(OC)c1	inconclusive: 29.1 µM [falling, single point]
CCc1ccc2oc(C(=O)N(Cc3cccc(Cl)c3)Cc3ccco3)c(C)c2c1	inconclusive: 11.6 µM [falling, partial curve]
CNC(=O)[C@H]1O[C@@H](n2cnc3c(NCc4cccc(I)c4)nc(Cl)nc32)[C@H](O)[C@@H]1O	active: 18.4 µM
Clc1cccc(CSc2ncnc3c2ncn3C2CCCCO2)c1 (configuration not stated)	inconclusive: 23.1 µM [falling, single point]

SMILES	Potency
COc1cccc(CNC(=O)CCCn2c(=O)c3cccn3c3ccc(F)cc32)c1OC	inactive
Cc1ccc(C)c(OCc2cc(C(=O)N3C[C@@H](C)O[C@@H](C)C3)no2)c1	inconclusive: 8.2 µM [activator, partial curve]
O=C(CCCN1C(=O)C(c2ccccc2)Oc2cccnc21)NCc1ccccc1Cl (configuration not stated)	inconclusive: 18.4 µM [falling, partial curve, poor fit]
Cc1ccc(C(=O)N2CCN(S(=O)(=O)c3ccc(C(C)C)cc3)CC2)s1	inconclusive: 16.4 µM [falling, single point]
O=C(N/N=C/c1ccccc1)c1n[nH]c2c1CCCC2	inconclusive: 2.06 µM [activator, full curve]
CCOc1c2ccc(C(=O)NCc3ccc(OC(F)(F)F)cc3)cc2nn1CC	inactive
COc1ccc(OC)c(NC(=O)c2ccc3c(=O)n(CCc4ccccc4)c(=S)[nH]c3c2)c1	inactive
CCOC(=O)N/N=C\c1ccc([N+](=O)[O-])o1	inactive
Fc1ccc(/C=N/Nc2nccnc2Cl)cc1	inactive
CC(=O)C[C@H]1c2cc(C(F)(F)F)ccc2S(=O)(=O)N1C1CCCCC1	inactive
CCOc1ncccc1C(=O)Nc1ccc(C(=O)Nc2ccc(OC)cc2)cc1	active: 8.2 µM
CN(CCC1CCCCO1)C(=O)CCc1nnc(CCc2ccccc2)o1 (configuration not stated)	inconclusive: 18.4 µM [activator, partial curve]
Cc1ccc(C)c(NC(=O)Cn2cc(S(=O)(=O)N3CCCC3)c(S(=O)(=O)N3CCCC3)c2)c1	inconclusive: 16.4 µM [activator, partial curve, poor fit]
COc1cc(NC(=O)CN(C)S(=O)(=O)c2ccc3c(c2)CCCC(=O)N3)cc(OC)c1OC	inconclusive: 4.11 µM [falling, full curve, poor fit]
Cc1ccccc1OCC(=O)Nc1ccc2c(c1)C(=O)c1ccccc1C2=O	active: 14.6 µM
Cn1cccc1CC(=O)N/N=C/c1ccc(C(C)(C)C)cc1	inconclusive: 29.1 µM [activator, single point]
Cc1ccccc1-c1nc(CS(=O)(=O)CC(=O)Nc2c(C)cccc2C)c(C)o1	inconclusive: 20.6 µM [falling, single point]
COc1ccc(CN2CCN(S(=O)(=O)c3ccccc3)CC2)c(OC)c1	inconclusive: 20.6 µM [falling, single point]
CCn1cc(S(=O)(=O)c2ccc(C)cc2C)c(=O)c2cc(F)c(N3CCCC3)cc21	inconclusive: 29.1 µM [falling, single point]
Cc1ccc(S(=O)(=O)NCCOCCNS(=O)(=O)c2ccc(C)cc2)cc1	inconclusive: 1.16 µM [falling, full curve, poor fit]
COc1cc(C(=O)NCCC(=O)N2CCC3(CC2)NCCc2[nH]cnc23)cc(OC)c1OC	inconclusive: 32.6 µM [falling, partial curve, poor fit]

Two of the compounds above, field by field.
COc1cccc(CNC(=O)CCCn2c(=O)c3cccn3c3ccc(F)cc32)c1OC
  Potency: inactive
CN(CCC1CCCCO1)C(=O)CCc1nnc(CCc2ccccc2)o1 (configuration not stated)
  Potency: inconclusive: 18.4 µM [activator, partial curve]
